From the supplement of paper PMC4862054
Most values lie at the level of the controls, where differences are scatter.

Tests used:
Assay in all cases: normalised response (% of control), CellTox Green; higher = less cell death (100 = DMSO, 0 = benzethonium chloride kill control)
Details in all cases: incubation time: 72 h
BT-474 = tested on: BT-474
Experimental: (§1)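 DSRT, 72 h incubation, CellTox Green / CellTiter-Glo readout. Signal is normalised to DMSO and benzethonium chloride controls. Value is the normalised response at the lowest tested concentration.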

MDA-MB-468 = tested on: MDA-MB-468
Experimental: as §1

HCC1599 = tested on: HCC1599
Experimental: as §1

BT-549 = tested on: BT-549
Experimental: as §1

CAL-51 = tested on: CAL-51
Experimental: as §1

HDQ-P1 = tested on: HDQ-P1
Experimental: as §1

HCC1143 = tested on: HCC1143
Experimental: as §1

MDA-MB-231 = tested on: MDA-MB-231
Experimental: as §1

Hs578T = tested on: Hs578T
Experimental: as §1

DU-4475 = tested on: DU-4475
Experimental: as §1

MCF-10A = tested on: MCF-10A
Experimental: as §1

CAL-120 = tested on: CAL-120
Experimental: as §1

CAL-85-1 = tested on: CAL-85-1
Experimental: as §1

CAL-148 = tested on: CAL-148
Experimental: as §1

HCC1937 = tested on: HCC1937
Experimental: as §1

MFM-223 = tested on: MFM-223
Experimental: as §1

MDA-MB-436 = tested on: MDA-MB-436
Experimental: as §1

MDA-MB-453 = tested on: MDA-MB-453
Experimental: as §1

`COc1ncc(-c2ccc3nccc(-c4ccnnc4)c3c2)cc1NS(=O)(=O)c1ccc(F)cc1F` (0.1 nM) was tested, and the normalised response (BT-474) was 102%, the normalised response (MDA-MB-468) was 62.6% and the normalised response (HCC1599) was 113%. For the same compound, the normalised response (BT-549) was 95.2%, the normalised response (CAL-51) was 127% and the normalised response (HDQ-P1) was 105%. For the same compound, the normalised response (HCC1143) was 105%, the normalised response (MDA-MB-231) was 114% and the normalised response (Hs578T) was 109%. For the same compound, the normalised response (DU-4475) was 106%, the normalised response (MCF-10A) was 107% and the normalised response (CAL-120) was 99.7%. For the same compound, the normalised response (CAL-85-1) was 101%, the normalised response (CAL-148) was 104% and the normalised response (HCC1937) was 113%. It also gave a normalised response (MFM-223) of 80.8% and a normalised response (MDA-MB-436) of 91.1%.

In the case of `Nc1nccc(-c2c(-c3ccc(F)cc3)ncn2C2CCCCC2)n1` (1 nM), the normalised response (BT-474) is reported as 103%, the normalised response (HCC1599) is reported as 112% and the normalised response (BT-549) is reported as 93.3%. The normalised response (CAL-51) was 115%, the normalised response (HDQ-P1) was 110% and the normalised response (MDA-MB-231) was 124%. The normalised response (Hs578T) was 95.6%, the normalised response (DU-4475) was 108% and the normalised response (MCF-10A) was 112%. For the same compound, the normalised response (CAL-120) was 102%, the normalised response (CAL-85-1) was 97.2% and the normalised response (CAL-148) was 97.7%. It also gave a normalised response (HCC1937) of 62.5%, a normalised response (MDA-MB-453) of 105% and a normalised response (MFM-223) of 101%. The normalised response (MDA-MB-436) was 96.6%.

`Cc1sc2c(c1C)C(c1ccc(Cl)cc1)=N[C@@H](CC(=O)OC(C)(C)C)c1nnc(C)n1-2` [(+)JQ1] (1 nM) gave a normalised response (BT-474) of 98.7%, a normalised response (MDA-MB-468) of 70.7% and a normalised response (HCC1599) of 101%. It also gave a normalised response (BT-549) of 106%, a normalised response (CAL-51) of 104% and a normalised response (HDQ-P1) of 101%. The normalised response (HCC1143) was 115%, the normalised response (MDA-MB-231) was 112% and the normalised response (Hs578T) was 102%. The normalised response (DU-4475) was 102%, the normalised response (MCF-10A) was 93% and the normalised response (CAL-120) was 100%. The normalised response (CAL-85-1) was 101%, the normalised response (MDA-MB-453) was 106% and the normalised response (MFM-223) was 103%. The normalised response (MDA-MB-436) was 80.3%.

`O=C(/C=C/c1cccc(S(=O)(=O)Nc2ccccc2)c1)NO` [Belinostat] (1 nM) gave a normalised response (BT-474) of 98.4%, a normalised response (MDA-MB-468) of 97.5% and a normalised response (HCC1599) of 93.7%. For the same compound, the normalised response (BT-549) was 92.2%, the normalised response (CAL-51) was 99% and the normalised response (HDQ-P1) was 103%. It also gave a normalised response (MDA-MB-231) of 86.2%, a normalised response (Hs578T) of 96% and a normalised response (DU-4475) of 95.8%. The normalised response (MCF-10A) was 65.9%, the normalised response (CAL-120) was 99.1% and the normalised response (CAL-85-1) was 101%. For the same compound, the normalised response (CAL-148) was 104%, the normalised response (HCC1937) was 100% and the normalised response (MDA-MB-453) was 108%. It also gave a normalised response (MFM-223) of 104% and a normalised response (MDA-MB-436) of 68%.

`C=C1C[C@@H]2[C@H](CC[C@]3(C)C(=O)CC[C@@H]23)[C@@]2(C)C=CC(=O)C=C12` [Exemestane] (1 nM) showed a normalised response (BT-474) of 102%, a normalised response (MDA-MB-468) of 79.5% and a normalised response (HCC1599) of 115%. The normalised response (BT-549) was 94.9%, the normalised response (CAL-51) was 112% and the normalised response (HDQ-P1) was 99.6%. It also gave a normalised response (HCC1143) of 126%, a normalised response (MDA-MB-231) of 119% and a normalised response (Hs578T) of 114%. It also gave a normalised response (DU-4475) of 111%, a normalised response (MCF-10A) of 104% and a normalised response (CAL-120) of 100%. For the same compound, the normalised response (CAL-85-1) was 104%, the normalised response (CAL-148) was 85.7% and the normalised response (MFM-223) was 101%. It also gave a normalised response (MDA-MB-436) of 105%.

For `CC(C)Cn1cnc2c(N)nc3ccccc3c21` [Imiquimod] (0.25 nM), the normalised response (BT-474) was 96.7%, the normalised response (MDA-MB-468) was 115% and the normalised response (HCC1599) was 108%. It also gave a normalised response (BT-549) of 93.1%, a normalised response (CAL-51) of 103% and a normalised response (HDQ-P1) of 96.8%. The normalised response (MDA-MB-231) was 78.4%, the normalised response (Hs578T) was 106% and the normalised response (DU-4475) was 104%. The normalised response (MCF-10A) was 106%, the normalised response (CAL-120) was 102% and the normalised response (CAL-85-1) was 95.2%. For the same compound, the normalised response (CAL-148) was 95.2%, the normalised response (MDA-MB-453) was 107% and the normalised response (MFM-223) was 103%. The normalised response (MDA-MB-436) was 95.9%.

In the case of `Cc1ccc(NC(=O)c2ccc(CN3CCN(C)CC3)cc2)cc1Nc1nc(-c2cccnc2)cs1` [Masitinib] (1 nM), the normalised response (BT-474) is reported as 104%, the normalised response (MDA-MB-468) is reported as 89.2% and the normalised response (HCC1599) is reported as 94.4%. It also gave a normalised response (BT-549) of 102%, a normalised response (CAL-51) of 89.8% and a normalised response (HDQ-P1) of 99.1%. The normalised response (HCC1143) was 99.8%, the normalised response (MDA-MB-231) was 101% and the normalised response (Hs578T) was 107%. It also gave a normalised response (DU-4475) of 101%, a normalised response (CAL-120) of 101% and a normalised response (CAL-85-1) of 105%. For the same compound, the normalised response (CAL-148) was 101%, the normalised response (HCC1937) was 104% and the normalised response (MDA-MB-453) was 107%. The normalised response (MFM-223) was 96.5% and the normalised response (MDA-MB-436) was 92.9%.

With `Cc1ccc(C(=O)Nc2ccc(CN3CCN(C)CC3)c(C(F)(F)F)c2)cc1C#Cc1cnc2cccnn12` [Ponatinib] (0.1 nM) the normalised response (BT-474) was 99.5%, the normalised response (MDA-MB-468) was 85.2% and the normalised response (HCC1599) was 97.3%. It also gave a normalised response (BT-549) of 97.3%, a normalised response (CAL-51) of 105% and a normalised response (HCC1143) of 79.4%. For the same compound, the normalised response (MDA-MB-231) was 102%, the normalised response (Hs578T) was 108% and the normalised response (DU-4475) was 101%. For the same compound, the normalised response (MCF-10A) was 105%, the normalised response (CAL-120) was 98.5% and the normalised response (CAL-85-1) was 98.5%. For the same compound, the normalised response (CAL-148) was 96.9%, the normalised response (HCC1937) was 81.9% and the normalised response (MDA-MB-453) was 92.1%. It also gave a normalised response (MFM-223) of 103% and a normalised response (MDA-MB-436) of 90.6%.

With `CCC(C)(C)C(=O)O[C@H]1C[C@@H](C)C=C2C=C[C@H](C)[C@H](CC[C@@H]3C[C@@H](O)CC(=O)O3)[C@H]21` [Simvastatin] (1 nM) the normalised response (BT-474) was 97.7%, the normalised response (MDA-MB-468) was 109% and the normalised response (HCC1599) was 93%. It also gave a normalised response (BT-549) of 94.5%, a normalised response (CAL-51) of 110% and a normalised response (HDQ-P1) of 99.7%. It also gave a normalised response (HCC1143) of 108%, a normalised response (MDA-MB-231) of 105% and a normalised response (Hs578T) of 89.8%. It also gave a normalised response (DU-4475) of 103%, a normalised response (MCF-10A) of 109% and a normalised response (CAL-120) of 102%. The normalised response (CAL-148) was 92.9%, the normalised response (MDA-MB-453) was 100% and the normalised response (MFM-223) was 103%. For the same compound, the normalised response (MDA-MB-436) was 81.9%.

`CCS(=O)(=O)c1cccc(-c2cc(C(=O)NC3CCN(C)CC3)c(C)c3[nH]c4ncc(C)cc4c23)c1` [TAK-901] (0.1 nM) showed a normalised response (BT-474) of 102%, a normalised response (MDA-MB-468) of 75% and a normalised response (HCC1599) of 100%. The normalised response (BT-549) was 89.7%, the normalised response (CAL-51) was 126% and the normalised response (HDQ-P1) was 74.1%. It also gave a normalised response (MDA-MB-231) of 111%, a normalised response (Hs578T) of 93.2% and a normalised response (DU-4475) of 103%. For the same compound, the normalised response (MCF-10A) was 63.5%, the normalised response (CAL-120) was 103% and the normalised response (CAL-85-1) was 102%. It also gave a normalised response (CAL-148) of 105%, a normalised response (HCC1937) of 108% and a normalised response (MDA-MB-453) of 98.9%. The normalised response (MFM-223) was 103% and the normalised response (MDA-MB-436) was 98.3%.

Compound `CC[C@]1(O)C[C@H]2CN(CCc3c([nH]c4ccccc34)[C@@](C(=O)OC)(c3cc4c(cc3OC)N(C=O)[C@H]3[C@@](O)(C(=O)OC)[C@H](OC(C)=O)[C@]5(CC)C=CCN6CC[C@]43[C@@H]65)C2)C1` [Vincristine] (0.1 nM) has a normalised response (BT-474) of 99.7%, a normalised response (MDA-MB-468) of 103% and a normalised response (HCC1599) of 101%. For the same compound, the normalised response (BT-549) was 99.2%, the normalised response (CAL-51) was 75.2% and the normalised response (HDQ-P1) was 90.9%. For the same compound, the normalised response (HCC1143) was 109%, the normalised response (MDA-MB-231) was 103% and the normalised response (Hs578T) was 110%. It also gave a normalised response (DU-4475) of 103%, a normalised response (CAL-120) of 99.9% and a normalised response (CAL-85-1) of 108%. The normalised response (CAL-148) was 100%, the normalised response (HCC1937) was 76% and the normalised response (MDA-MB-453) was 105%. It also gave a normalised response (MFM-223) of 103% and a normalised response (MDA-MB-436) of 74.1%.
